Experimental data published in the supplement of paper PMC10849652.
Some of the results follow. Residues, ends and D or L forms follow the SMILES beside them. *: point of attachment. Cbz = O=C(OCc1ccccc1)*

Sequences of proteins named here, by UniProt entry; tags and fusion partners are left off. A change or cut given only in a name is not applied to a line headed by its entry.
UniProt P51991: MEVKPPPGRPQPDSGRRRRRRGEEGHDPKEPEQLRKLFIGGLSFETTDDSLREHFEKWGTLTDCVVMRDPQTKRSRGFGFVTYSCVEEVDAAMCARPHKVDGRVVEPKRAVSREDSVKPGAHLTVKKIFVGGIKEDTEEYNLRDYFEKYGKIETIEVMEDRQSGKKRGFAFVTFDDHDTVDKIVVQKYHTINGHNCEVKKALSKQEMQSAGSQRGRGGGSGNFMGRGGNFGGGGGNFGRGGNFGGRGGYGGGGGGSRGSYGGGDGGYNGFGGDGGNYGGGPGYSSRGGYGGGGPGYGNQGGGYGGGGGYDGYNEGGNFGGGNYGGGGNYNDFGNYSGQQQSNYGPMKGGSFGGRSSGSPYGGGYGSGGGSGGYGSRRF
UniProt Q92506: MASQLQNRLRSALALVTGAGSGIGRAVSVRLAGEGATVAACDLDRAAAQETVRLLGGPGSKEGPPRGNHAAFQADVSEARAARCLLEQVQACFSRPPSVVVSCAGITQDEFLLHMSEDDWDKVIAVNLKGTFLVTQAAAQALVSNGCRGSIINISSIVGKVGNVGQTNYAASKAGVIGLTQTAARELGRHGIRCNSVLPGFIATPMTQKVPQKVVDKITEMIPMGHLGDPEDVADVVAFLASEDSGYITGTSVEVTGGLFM
UniProt Q8NBQ5: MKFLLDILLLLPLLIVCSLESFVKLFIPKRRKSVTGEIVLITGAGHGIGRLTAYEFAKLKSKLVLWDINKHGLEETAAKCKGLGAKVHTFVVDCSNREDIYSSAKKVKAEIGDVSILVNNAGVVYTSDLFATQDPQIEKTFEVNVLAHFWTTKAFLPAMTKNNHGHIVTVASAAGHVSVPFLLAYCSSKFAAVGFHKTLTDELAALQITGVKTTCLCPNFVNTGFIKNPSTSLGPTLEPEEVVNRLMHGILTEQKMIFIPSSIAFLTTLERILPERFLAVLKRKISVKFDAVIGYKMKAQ
UniProt P34931, whole entry, looked up: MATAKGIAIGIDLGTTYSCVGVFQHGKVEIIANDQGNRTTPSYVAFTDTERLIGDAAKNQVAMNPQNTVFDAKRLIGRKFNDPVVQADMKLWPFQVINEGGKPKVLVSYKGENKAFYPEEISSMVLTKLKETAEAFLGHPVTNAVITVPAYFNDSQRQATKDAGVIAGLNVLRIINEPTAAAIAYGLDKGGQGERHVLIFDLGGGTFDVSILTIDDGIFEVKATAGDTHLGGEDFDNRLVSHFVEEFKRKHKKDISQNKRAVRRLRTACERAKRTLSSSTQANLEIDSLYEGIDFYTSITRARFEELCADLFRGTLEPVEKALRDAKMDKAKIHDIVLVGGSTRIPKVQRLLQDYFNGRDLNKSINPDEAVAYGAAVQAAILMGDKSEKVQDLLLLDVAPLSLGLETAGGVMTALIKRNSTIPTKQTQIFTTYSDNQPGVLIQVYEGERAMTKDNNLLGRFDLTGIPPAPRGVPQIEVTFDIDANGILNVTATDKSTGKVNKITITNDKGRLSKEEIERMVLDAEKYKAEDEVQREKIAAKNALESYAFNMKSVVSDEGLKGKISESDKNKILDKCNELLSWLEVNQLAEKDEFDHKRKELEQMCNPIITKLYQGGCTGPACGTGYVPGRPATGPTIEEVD
UniProt P31937: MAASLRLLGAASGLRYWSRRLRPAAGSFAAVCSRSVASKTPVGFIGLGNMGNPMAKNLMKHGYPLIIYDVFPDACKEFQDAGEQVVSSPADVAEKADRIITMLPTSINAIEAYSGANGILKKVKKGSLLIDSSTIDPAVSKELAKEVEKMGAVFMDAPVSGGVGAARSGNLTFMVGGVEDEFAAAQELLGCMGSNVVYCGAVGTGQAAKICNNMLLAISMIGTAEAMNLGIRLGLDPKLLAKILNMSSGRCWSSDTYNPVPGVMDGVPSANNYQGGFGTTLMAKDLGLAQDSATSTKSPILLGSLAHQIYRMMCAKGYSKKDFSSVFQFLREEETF
UniProt P14735, whole entry, looked up: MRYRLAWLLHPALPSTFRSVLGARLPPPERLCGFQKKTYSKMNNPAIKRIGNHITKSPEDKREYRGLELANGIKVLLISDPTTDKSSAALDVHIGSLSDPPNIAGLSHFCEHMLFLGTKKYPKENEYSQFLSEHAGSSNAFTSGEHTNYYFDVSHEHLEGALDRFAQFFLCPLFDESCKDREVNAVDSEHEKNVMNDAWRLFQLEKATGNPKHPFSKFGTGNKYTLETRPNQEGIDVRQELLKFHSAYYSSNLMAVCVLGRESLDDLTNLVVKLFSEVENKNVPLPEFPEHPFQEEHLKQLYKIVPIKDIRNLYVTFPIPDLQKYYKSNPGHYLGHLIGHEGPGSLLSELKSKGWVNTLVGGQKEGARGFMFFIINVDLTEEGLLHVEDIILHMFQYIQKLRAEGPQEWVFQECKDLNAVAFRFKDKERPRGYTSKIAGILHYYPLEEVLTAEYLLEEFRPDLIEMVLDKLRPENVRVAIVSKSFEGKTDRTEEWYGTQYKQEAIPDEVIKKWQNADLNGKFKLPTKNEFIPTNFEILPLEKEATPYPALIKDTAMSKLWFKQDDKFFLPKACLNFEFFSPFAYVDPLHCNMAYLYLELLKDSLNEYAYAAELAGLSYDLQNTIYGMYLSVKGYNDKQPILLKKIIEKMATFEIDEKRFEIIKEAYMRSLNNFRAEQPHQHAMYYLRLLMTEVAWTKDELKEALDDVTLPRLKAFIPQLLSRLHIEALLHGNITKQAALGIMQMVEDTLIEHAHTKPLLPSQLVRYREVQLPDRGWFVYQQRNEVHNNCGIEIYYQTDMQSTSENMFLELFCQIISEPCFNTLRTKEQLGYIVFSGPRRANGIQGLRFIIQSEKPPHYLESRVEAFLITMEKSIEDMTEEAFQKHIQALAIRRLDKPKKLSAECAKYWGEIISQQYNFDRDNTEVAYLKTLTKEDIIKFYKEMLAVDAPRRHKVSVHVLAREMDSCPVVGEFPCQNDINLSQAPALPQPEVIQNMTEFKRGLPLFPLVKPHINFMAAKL
UniProt Q9Y4L1: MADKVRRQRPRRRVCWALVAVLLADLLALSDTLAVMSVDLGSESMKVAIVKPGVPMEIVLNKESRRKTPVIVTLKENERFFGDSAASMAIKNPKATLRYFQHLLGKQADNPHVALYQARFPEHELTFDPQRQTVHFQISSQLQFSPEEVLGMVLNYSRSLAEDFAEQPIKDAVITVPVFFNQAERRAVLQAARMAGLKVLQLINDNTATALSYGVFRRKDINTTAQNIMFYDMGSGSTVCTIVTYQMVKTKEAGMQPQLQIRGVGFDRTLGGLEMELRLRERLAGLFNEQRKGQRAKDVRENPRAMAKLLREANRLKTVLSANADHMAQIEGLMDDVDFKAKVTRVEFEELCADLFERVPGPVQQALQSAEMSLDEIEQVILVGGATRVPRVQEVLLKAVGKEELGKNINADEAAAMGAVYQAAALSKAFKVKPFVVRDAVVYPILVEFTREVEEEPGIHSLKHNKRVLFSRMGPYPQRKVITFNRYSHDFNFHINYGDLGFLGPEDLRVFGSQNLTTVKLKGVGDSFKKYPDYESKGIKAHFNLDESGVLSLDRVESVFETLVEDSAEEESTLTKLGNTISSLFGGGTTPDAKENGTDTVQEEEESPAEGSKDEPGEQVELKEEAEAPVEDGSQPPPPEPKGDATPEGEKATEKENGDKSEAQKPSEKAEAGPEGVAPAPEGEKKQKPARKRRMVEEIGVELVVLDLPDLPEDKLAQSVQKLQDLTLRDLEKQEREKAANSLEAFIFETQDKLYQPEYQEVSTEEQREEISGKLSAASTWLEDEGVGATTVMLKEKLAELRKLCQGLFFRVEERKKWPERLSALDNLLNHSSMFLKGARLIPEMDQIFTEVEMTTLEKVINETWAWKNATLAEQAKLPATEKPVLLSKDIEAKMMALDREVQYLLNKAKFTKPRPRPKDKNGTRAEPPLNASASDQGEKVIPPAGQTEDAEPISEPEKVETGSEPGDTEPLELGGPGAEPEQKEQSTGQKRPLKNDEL
UniProt P08238, whole entry, looked up: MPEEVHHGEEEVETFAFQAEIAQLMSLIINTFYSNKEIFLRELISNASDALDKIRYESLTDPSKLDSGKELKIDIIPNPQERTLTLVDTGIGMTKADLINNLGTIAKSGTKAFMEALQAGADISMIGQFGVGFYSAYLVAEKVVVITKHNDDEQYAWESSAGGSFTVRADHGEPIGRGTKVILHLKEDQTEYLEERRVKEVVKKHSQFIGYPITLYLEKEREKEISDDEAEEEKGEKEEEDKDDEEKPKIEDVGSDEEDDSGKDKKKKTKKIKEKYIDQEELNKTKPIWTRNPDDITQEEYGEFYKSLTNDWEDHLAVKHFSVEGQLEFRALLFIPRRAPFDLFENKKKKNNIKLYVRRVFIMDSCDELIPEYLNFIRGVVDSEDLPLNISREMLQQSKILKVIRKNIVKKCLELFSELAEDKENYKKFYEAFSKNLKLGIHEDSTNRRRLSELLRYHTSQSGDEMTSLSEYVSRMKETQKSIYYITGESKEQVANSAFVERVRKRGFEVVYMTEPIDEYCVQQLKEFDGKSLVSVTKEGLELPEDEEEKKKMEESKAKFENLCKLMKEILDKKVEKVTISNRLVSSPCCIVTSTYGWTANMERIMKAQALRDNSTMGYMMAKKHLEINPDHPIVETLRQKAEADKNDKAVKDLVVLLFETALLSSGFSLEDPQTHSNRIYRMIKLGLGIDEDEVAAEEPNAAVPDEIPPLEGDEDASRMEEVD
UniProt Q53T59: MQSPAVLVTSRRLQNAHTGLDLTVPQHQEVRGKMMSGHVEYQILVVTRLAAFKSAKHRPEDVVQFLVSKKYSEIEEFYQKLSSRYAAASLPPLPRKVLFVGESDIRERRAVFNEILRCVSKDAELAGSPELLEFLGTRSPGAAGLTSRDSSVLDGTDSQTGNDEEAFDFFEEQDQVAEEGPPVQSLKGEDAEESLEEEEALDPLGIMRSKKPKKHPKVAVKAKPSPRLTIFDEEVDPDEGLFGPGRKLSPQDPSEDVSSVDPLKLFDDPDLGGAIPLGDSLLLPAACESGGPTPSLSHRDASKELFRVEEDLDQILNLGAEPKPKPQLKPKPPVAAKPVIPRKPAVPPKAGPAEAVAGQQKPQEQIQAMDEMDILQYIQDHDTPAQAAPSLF
UniProt Q9Y547: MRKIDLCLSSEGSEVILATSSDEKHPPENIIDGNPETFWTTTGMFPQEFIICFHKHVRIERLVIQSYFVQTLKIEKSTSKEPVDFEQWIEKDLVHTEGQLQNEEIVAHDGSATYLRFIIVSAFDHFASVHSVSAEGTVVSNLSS
UniProt P08397: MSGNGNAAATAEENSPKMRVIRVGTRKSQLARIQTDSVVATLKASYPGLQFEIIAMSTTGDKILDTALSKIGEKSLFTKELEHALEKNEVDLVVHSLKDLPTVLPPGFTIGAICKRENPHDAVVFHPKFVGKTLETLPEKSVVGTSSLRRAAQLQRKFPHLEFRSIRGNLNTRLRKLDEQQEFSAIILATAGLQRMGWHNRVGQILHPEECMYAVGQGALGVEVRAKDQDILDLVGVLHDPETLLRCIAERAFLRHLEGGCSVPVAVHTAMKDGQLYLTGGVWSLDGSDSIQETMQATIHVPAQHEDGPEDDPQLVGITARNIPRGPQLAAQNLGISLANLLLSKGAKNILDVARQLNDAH
UniProt Q9NX55: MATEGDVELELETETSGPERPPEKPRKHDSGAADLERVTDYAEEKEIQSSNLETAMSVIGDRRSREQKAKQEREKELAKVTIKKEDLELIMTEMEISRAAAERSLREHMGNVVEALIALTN
UniProt Q00839, whole entry, looked up: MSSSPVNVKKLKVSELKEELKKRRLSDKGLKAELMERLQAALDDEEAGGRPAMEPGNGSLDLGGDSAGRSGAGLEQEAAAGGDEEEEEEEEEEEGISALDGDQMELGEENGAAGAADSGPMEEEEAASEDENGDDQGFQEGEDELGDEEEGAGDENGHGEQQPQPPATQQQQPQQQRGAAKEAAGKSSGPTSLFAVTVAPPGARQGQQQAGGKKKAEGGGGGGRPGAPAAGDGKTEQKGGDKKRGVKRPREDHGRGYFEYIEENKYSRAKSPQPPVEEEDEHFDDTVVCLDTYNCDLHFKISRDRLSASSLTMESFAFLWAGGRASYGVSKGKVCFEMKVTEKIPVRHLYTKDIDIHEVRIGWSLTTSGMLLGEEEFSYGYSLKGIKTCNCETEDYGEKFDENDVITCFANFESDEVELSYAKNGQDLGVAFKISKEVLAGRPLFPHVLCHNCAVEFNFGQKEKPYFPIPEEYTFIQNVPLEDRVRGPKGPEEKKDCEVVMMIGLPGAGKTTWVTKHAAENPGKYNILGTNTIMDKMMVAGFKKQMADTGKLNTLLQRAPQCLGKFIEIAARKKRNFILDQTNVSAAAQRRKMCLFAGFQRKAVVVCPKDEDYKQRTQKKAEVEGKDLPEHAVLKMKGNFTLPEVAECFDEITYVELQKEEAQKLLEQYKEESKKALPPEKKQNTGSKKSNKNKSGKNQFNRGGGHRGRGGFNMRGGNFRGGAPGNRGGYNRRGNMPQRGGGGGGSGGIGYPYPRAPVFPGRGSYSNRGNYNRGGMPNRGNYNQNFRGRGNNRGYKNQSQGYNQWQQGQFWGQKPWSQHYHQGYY

How the values were obtained:
Experiment in all cases: log2 fold change, soluble protein after heating vs DMSO (PISA); higher = thermal stabilisation; K562 cells, 10 uM, 30 min; active = over 0.2 and 3.5 SD of the protein, either way, in both replicates (recomputed)
IRAK-1-4 Inhibitor I = compound: C1COCCN1CCN2C3=CC=CC=C3N=C2NC(=O)C4=CC(=CC=C4)[N+](=O)[O-] [IRAK-1-4 Inhibitor I]
How it was run: (§1)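 Soluble protein was quantified by TMTpro 16plex LC-MS/MS after channel sums were equalised. It was obtained as the supernatant after 21,000xg for 90 min from pooled aliquots of K562 cells (2×10^6 cells/mL, 10 μM compound, 30 min) heated for 3 min across 48°C-58°C and extracted in PBS with 0.5% NP-40 at 4°C. Thermal stability values are relative to control samples and come from duplicates. They are given as log2 fold changes.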

ibrutinib = compound: C=CC(=O)N1CCC[C@@H](n2nc(-c3ccc(Oc4ccccc4)cc3)c3c(N)ncnc32)C1 [ibrutinib]
How it was run: as §1

[1] = compound: CC(=O)c1cnc2ccc(-c3cc(Cl)c(O)c(Cl)c3)nc2c1N[C@H]1CC[C@H](CN(C)C)CC1
How it was run: as §1

ralimetinib = compound: CC(C)(C)Cn1c(N)nc2ccc(-c3[nH]c(C(C)(C)C)nc3-c3ccc(F)cc3)nc21 [ralimetinib]
How it was run: as §1

[2] = compound: CC(C)(O)CC(=O)NCCn1ccc2ncnc(Nc3ccc(Oc4cccc(C(F)(F)F)c4)c(Cl)c3)c21
How it was run: as §1

[3] = compound: CC(C)C1=C2N=C(C=C(N2N=C1)NCC3=CC=CC=C3)NCCCCCCN
How it was run: as §1

[4] = compound: CC(C)C[C@@H](C=O)NC(=O)[C@H](CC(C)C)NC(=O)[C@H](CC(C)C)NC(=O)OCc1ccccc1
How it was run: as §1

pinometostat = compound: CC(C)N(C[C@H]1O[C@@H](n2cnc3c(N)ncnc32)[C@H](O)[C@@H]1O)[C@H]1C[C@@H](CCc2nc3cc(C(C)(C)C)ccc3[nH]2)C1 [pinometostat]
How it was run: as §1

[5] = compound: CC1=C(C(CC(=O)N1)C2=CC=C(C=C2)C(F)(F)F)C(=O)NC3=C(C=C4C(=C3)C=NN4)F
How it was run: as §1

[6] = compound: CC1=C(C2=C(C=C1)C(=O)C3=CC=CC=C3N2CCCN)C
How it was run: as §1

Measured: log2 fold change

HNRNPA3 (UniProt P51991)
inactive: IRAK-1-4 Inhibitor I -0.2 | ibrutinib 0.075 | [1] 0.176 | ralimetinib 0.156 | [2] 0.221 | [3] 0.057 | [4] 0.093 | pinometostat 0.196 | [5] -0.045 | [6] -0.194

HMGN5 (UniProt P82970)
inactive: IRAK-1-4 Inhibitor I 0.001 | ibrutinib 0.02 | [1] 0.105 | ralimetinib -0.026 | [2] 0.011 | [3] 0.07 | [4] -0.006 | pinometostat -0.083 | [5] 0.017 | [6] -0.031

HSD17B8 (UniProt Q92506)
inactive: IRAK-1-4 Inhibitor I 0.006 | ibrutinib 0.026 | [1] -0.04 | ralimetinib -0.05 | [2] 0.025 | [3] 0.005 | [4] -0.005 | pinometostat -0.011 | [5] 0.013 | [6] 0.001

HSD17B11 (UniProt Q8NBQ5)
inactive: IRAK-1-4 Inhibitor I 0.001 | ibrutinib -0.019 | [1] 0.001 | ralimetinib -0.097 | [2] 0.048 | [3] 0.101 | [4] -0.055 | pinometostat -0.056 | [5] -0.018 | [6] 0.005

HSPA14 (UniProt Q0VDF9)
inactive: IRAK-1-4 Inhibitor I -0.086 | ibrutinib -0.059 | [1] -0.035 | ralimetinib 0.05 | [2] -0.046 | [3] -0.213 | [4] 0.076 | pinometostat 0.163 | [5] 0.002 | [6] -0.002

HMGCS1 (UniProt Q01581)
inactive: IRAK-1-4 Inhibitor I 0.039 | ibrutinib 0.007 | [1] -0.038 | ralimetinib -0.039 | [2] -0.005 | [3] 0.007 | [4] -0.005 | pinometostat -0.022 | [5] 0.06 | [6] -0.039

HSPA1L (UniProt P34931)
inactive: IRAK-1-4 Inhibitor I 0.018 | ibrutinib 0.091 | [1] 0.092 | ralimetinib -0.032 | [2] -0.064 | [3] 0.073 | [4] -0.081 | pinometostat -0.022 | [5] -0.086 | [6] 0.011

HIBADH (UniProt P31937)
inactive: IRAK-1-4 Inhibitor I 0.012 | ibrutinib 0.011 | [1] -0.015 | ralimetinib 0 | [2] 0.058 | [3] 0.088 | [4] -0.024 | pinometostat 0.016 | [5] -0.018 | [6] -0.04

HOXB9 (UniProt P17482)
inactive: IRAK-1-4 Inhibitor I -0.013 | ibrutinib -0.015 | [1] -0.016 | ralimetinib 0.195 | [2] -0.166 | [3] -0.152 | [4] 0.024 | pinometostat 0.074 | [5] -0.017 | [6] -0.24

HPRT1 (UniProt P00492)
inactive: IRAK-1-4 Inhibitor I 0.016 | ibrutinib 0.022 | [1] 0.008 | ralimetinib -0.007 | [2] -0.01 | [3] 0.08 | [4] -0.005 | pinometostat -0.038 | [5] 0.043 | [6] -0.002

IARS2 (UniProt Q9NSE4)
inactive: IRAK-1-4 Inhibitor I 0.006 | ibrutinib 0.014 | [1] 0.018 | ralimetinib -0.031 | [2] 0.005 | [3] 0.028 | [4] -0.015 | pinometostat -0.073 | [5] 0 | [6] -0.003

HSPA4 (UniProt P34932)
inactive: IRAK-1-4 Inhibitor I 0.009 | ibrutinib -0.016 | [1] 0.009 | ralimetinib -0.011 | [2] -0.005 | [3] -0.005 | [4] -0.009 | pinometostat -0.052 | [5] -0.01 | [6] 0

2 entries drawn at random from the list so far:
HIBADH (UniProt P31937)
inactive: IRAK-1-4 Inhibitor I 0.012 | ibrutinib 0.011 | [1] -0.015 | ralimetinib 0 | [2] 0.058 | [3] 0.088 | [4] -0.024 | pinometostat 0.016 | [5] -0.018 | [6] -0.04

HPRT1 (UniProt P00492)
inactive: IRAK-1-4 Inhibitor I 0.016 | ibrutinib 0.022 | [1] 0.008 | ralimetinib -0.007 | [2] -0.01 | [3] 0.08 | [4] -0.005 | pinometostat -0.038 | [5] 0.043 | [6] -0.002

Additional results follow.

ICAM5 (UniProt Q9UMF0)
inactive: IRAK-1-4 Inhibitor I 0.045 | ibrutinib -0.123 | [1] -0.143 | ralimetinib 0.034 | [2] 0.118 | [3] -0.006 | [4] 0.043 | pinometostat -0.03 | [5] 0.044 | [6] 0.079

HM13 isoform 2 (UniProt Q8TCT9)
inactive: IRAK-1-4 Inhibitor I 0.03 | ibrutinib -0.019 | [1] 0.016 | ralimetinib -0.019 | [2] -0.045 | [3] 0.044 | [4] -0.037 | pinometostat -0.037 | [5] 0.007 | [6] -0.032

IDE (UniProt P14735)
inactive: IRAK-1-4 Inhibitor I -0.015 | ibrutinib -0.008 | [1] -0.034 | ralimetinib 0.05 | [2] -0.042 | [3] 0.116 | [4] 0.058 | pinometostat 0.021 | [5] 0.013 | [6] 0.084

HYOU1 (UniProt Q9Y4L1)
inactive: IRAK-1-4 Inhibitor I -0.04 | ibrutinib -0.033 | [1] 0 | ralimetinib 0.037 | [2] 0.015 | [3] -0.023 | [4] -0.011 | pinometostat 0.017 | [5] 0.028 | [6] -0.017

HNRNPR isoform 2 (UniProt O43390)
inactive: IRAK-1-4 Inhibitor I -0.15 | ibrutinib 0.069 | [1] 0.003 | ralimetinib 0.101 | [2] 0.077 | [3] -0.063 | [4] 0.059 | pinometostat 0.135 | [5] 0.028 | [6] -0.294

HSP90AB1 (UniProt P08238)
inactive: IRAK-1-4 Inhibitor I 0.024 | ibrutinib -0.031 | [1] 0.039 | ralimetinib -0.014 | [2] -0.019 | [3] -0.058 | [4] 0.007 | pinometostat -0.05 | [5] -0.021 | [6] -0.015

HMGN4 (UniProt O00479)
inactive: IRAK-1-4 Inhibitor I -0.237 | ibrutinib 0.068 | [1] 0.32 | ralimetinib 0.346 | [2] -0.253 | [3] 0.082 | [4] -0.527 | pinometostat 0.15 | [5] -0.124 | [6] 0.337

HSPA1A (UniProt P0DMV8)
inactive: IRAK-1-4 Inhibitor I 0.06 | ibrutinib 0.006 | [1] 0 | ralimetinib 0.054 | [2] 0.068 | [3] 0.063 | [4] -0.029 | pinometostat -0.024 | [5] 0.026 | [6] -0.018

HNRNPLL (UniProt Q8WVV9)
inactive: IRAK-1-4 Inhibitor I -0.108 | ibrutinib 0.12 | [1] -0.303 | ralimetinib -0.018 | [2] 0.027 | [3] -0.264 | [4] -0.007 | pinometostat -0.022 | [5] 0.039 | [6] -0.012

HMGB1 (UniProt P09429)
inactive: IRAK-1-4 Inhibitor I 0.111 | ibrutinib -0.008 | [1] 0.019 | ralimetinib 0.129 | [2] 0.064 | [3] 0.125 | [4] 0.1 | pinometostat -0.063 | [5] 0.03 | [6] 0.119

HS1BP3 (UniProt Q53T59)
inactive: IRAK-1-4 Inhibitor I 0.004 | ibrutinib -0.029 | [1] -0.117 | ralimetinib 0.038 | [2] -0.059 | [3] -0.038 | [4] 0.086 | pinometostat -0.002

HSPB11 (UniProt Q9Y547)
inactive: IRAK-1-4 Inhibitor I -0.017 | ibrutinib -0.028 | [1] -0.07 | ralimetinib 0.085 | [2] -0.066 | [3] -0.072 | [4] -0.065 | pinometostat -0.027 | [5] -0.058 | [6] -0.029

HMGCL (UniProt P35914)
inactive: IRAK-1-4 Inhibitor I 0.07 | ibrutinib 0.021 | [1] 0.063 | ralimetinib -0.024 | [2] -0.087 | [3] 0.025 | [4] -0.056 | pinometostat -0.031 | [5] 0.015 | [6] 0.015

HMBS (UniProt P08397)
inactive: IRAK-1-4 Inhibitor I 0.049 | ibrutinib 0.022 | [1] 0.008 | ralimetinib -0.008 | [2] 0.01 | [3] 0.105 | [4] -0.043 | pinometostat -0.056 | [5] 0.008 | [6] -0.012

HYPK (UniProt Q9NX55)
inactive: IRAK-1-4 Inhibitor I 0.006 | ibrutinib -0.046 | [1] -0.04 | ralimetinib -0.024 | [2] 0.077 | [3] 0.076 | [4] 0.015 | pinometostat -0.067 | [5] 0.023 | [6] 0.044

ICAM2 (UniProt P13598)
inactive: IRAK-1-4 Inhibitor I 0.04 | ibrutinib 0.063 | [1] -0.014 | ralimetinib 0.058 | [2] -0.041 | [3] 0.087 | [4] -0.051 | pinometostat -0.054 | [5] -0.056 | [6] 0.007

HSD17B10 (UniProt Q99714)
inactive: IRAK-1-4 Inhibitor I -0.025 | ibrutinib -0.019 | [1] -0.02 | ralimetinib -0.029 | [2] -0.038 | [3] 0.07 | [4] -0.086 | pinometostat -0.105 | [5] -0.034 | [6] 0.058

HNRNPU (UniProt Q00839)
inactive: IRAK-1-4 Inhibitor I -0.213 | ibrutinib -0.034 | [1] -0.221 | ralimetinib 0.042 | [2] -0.06 | [3] -0.149 | [4] 0.05 | pinometostat 0.177 | [5] -0.019 | [6] -0.252
